Assay results taken from PubChem BioAssay AID2685 (National Center for Advancing Translational Sciences (NCATS), 2010).
This is one part of the list. Shown are side measurements of this screen, not its main read-out; they come without a call. Compounds called inactive in the main read-out are mostly missing here. Potencies come from curve fits of mixed quality, noted in brackets.

Experiment: qHTS Assay for Lipid Storage Modulators in Drosophila S3 Cells;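 for cell number change: cells counted by Cell Tracker Red CMTPX staining in the red channel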
Conditions: BODIPY lipid droplet fluorescence, 18-24 h; for cell number change: measured here: cell count max response, cells fed with added oleic acid
How it was run: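 Laser-scanning cytometry quantifies lipid droplet accumulation (500–530 nm total intensity; droplet/cell object ratio) in oleic acid-fed (400 uM added) Drosophila S3 cells treated with a concentration series. 20 uM Triacsin C defined 100% inhibition.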

[1] = measured here: cell number channel AC50, cells fed with added oleic acid
[2] = measured here: lipid fluorescence (Fed channel) AC50, cells fed with added oleic acid

SMILES | cell number change | AC50 [1] | AC50 [2]
CCOC(=O)c1c(C)[nH]c(C(=O)COC(=O)CNS(=O)(=O)c2ccc(C)cc2)c1C | -40.8% | 9.2 µM [falling, partial curve] | 8.2 µM [falling, partial curve]
O=C(NCCc1ccc(F)cc1)c1cc2ccccc2oc1=O | 10.8% | – | –
O=C(NCc1ccc(N2CCCC2=O)cc1)Nc1ccccc1 | 105% | 16.4 µM [rising, partial curve] | 6.51 µM [rising, single point]
Cc1ccc(SCCC(=O)Nc2ccccc2C(=O)NC2CCCCC2)cc1 | -10.8% | – | 6.51 µM [rising, single point]
NC(=O)c1ccc(NC(=O)c2ccc(COc3ccc(F)cc3)o2)cc1 | 2.59% | – | 23.1 µM [rising, partial curve]
Cc1ccc(SCCNC(=O)CN2C(=O)c3ccccc3S2(=O)=O)cc1 | -18.3% | 0.00366 µM [falling, full curve, poor fit] | –
O=[N+]([O-])c1cccc(-c2n[nH]c(=S)n2Cc2ccccc2)c1 | 2% | – | 11.6 µM [rising, partial curve]
CCCC(=O)N1CCN(c2ccc(NC(=O)c3cc4ccccc4o3)cc2)CC1 | 13.6% | – | –
O=C(NCC1CCCO1)c1ccc(CS(=O)(=O)c2c(Cl)cccc2Cl)o1 (stereo not drawn) | 12.5% | – | 18.4 µM [rising, single point]
CS(=O)(=O)Oc1ccc2c(c1)O/C(=C\c1cccnc1)C2=O | -14.6% | – | 13 µM [falling, partial curve, poor fit]
CN(C)S(=O)(=O)c1cccc(NC(=O)CN2C(=O)NC3(CCc4ccccc4C3)C2=O)c1 (stereo not drawn) | 0.427% | – | –
O=c1oc2ccccc2c(O)c1Cc1cc(Cl)c2cccnc2c1O | -53.2% | 0.82 µM [falling, full curve] | 1.3 µM [falling, full curve]
CC1CCCC/C1=N\NC(=S)Nc1cccnc1 (stereo not drawn) | 8.6% | – | 6.51 µM [rising, single point]
CC(=O)Oc1ccc2c(C)c(CC(C)O)c(=O)oc2c1 (stereo not drawn) | 2.99% | – | 3.66 µM [rising, single point]
CCOC(=O)N1CCN(S(=O)(=O)c2ccc(C(=O)Nc3ccc4c(c3)C(=O)NC4=O)cc2)CC1 | 8.03% | 1.84 µM [falling, partial curve] | –
O=C(CSc1nc(-c2ccco2)cc(C(F)(F)F)n1)Nc1cccnc1 | -8.27% | – | 0.00517 µM [rising, full curve, poor fit]
Fc1ccc(NC2=NCCCCC2)cc1 | -25.4% | – | –
Cc1cc(N2C(=O)C3C4c5ccccc5C(c5ccccc54)C3C2=O)no1 (stereo not drawn) | 1.45% | – | –
Cc1ccc(S(=O)(=O)N(C)C)cc1NC(=O)CSc1nc2ncc(Cl)cc2[nH]1 | 31.5% | 9.2 µM [rising, partial curve, poor fit] | –
COCCCNCCOCCOc1ccc(C)cc1[N+](=O)[O-] | 32.8% | 25.9 µM [rising, single point] | –
COc1cccc(NC(=O)C(NCC(C)(C)CN(C)C)c2ccccc2)c1 (stereo not drawn) | 12.6% | – | –
O=C(NC(c1ccccc1)c1ccccc1)C1CCCC1 | -12.4% | 0.517 µM [falling, single point] | –

Another view of some results above:
O=C(CSc1nc(-c2ccco2)cc(C(F)(F)F)n1)Nc1cccnc1
  cell number change: -8.27%; AC50 [2]: 0.00517 µM [rising, full curve, poor fit]
Fc1ccc(NC2=NCCCCC2)cc1
  cell number change: -25.4%

(listing goes on)

SMILES | cell number change | AC50 [1] | AC50 [2]
CCOC(=O)c1cc2cc(CC(=O)c3ccc(OCC)cc3O)ccc2o1 | 15.7% | – | –
CC(C)c1ccc(/C=C2\SC(=O)N(CC(=O)NC3CCS(=O)(=O)C3)C2=O)cc1 (stereo not drawn) | – | – | 1.3 µM [falling, partial curve]
COc1ccccc1CN(Cc1cc2cc3c(cc2[nH]c1=O)OCCO3)Cc1nnnn1Cc1ccco1 | – | – | 7.31 µM [falling, partial curve, poor fit]
O=C(CSc1nnc(CNc2ccccc2)o1)N1CCCc2ccccc21 | – | – | 29.1 µM [rising, partial curve, poor fit]
COC(=O)c1ccc(CSc2nccn2C)cc1 | 88.9% | 20.6 µM [rising, partial curve] | 20.6 µM [rising, partial curve]
CN1CCN(P(=O)(c2ccccc2)c2nc3ccccc3s2)CC1 (stereo not drawn) | -38.4% | – | 0.326 µM [falling, full curve, poor fit]
Cc1cc(C(=O)N/N=C/c2c3ccccc3cc3ccccc23)n[nH]1 | 16.1% | – | 6.51 µM [rising, single point]
c1ccc(-c2nnc(SCc3cn4ccsc4n3)o2)cc1 | 1.76% | – | 1.46 µM [falling, partial curve]
Cn1c(=O)c2c(nc(CN3CCN(C(=O)c4ccco4)CC3)n2Cc2ccc(F)cc2)n(C)c1=O | -15.9% | – | 3.66 µM [rising, single point]
Cn1c(Cc2cccs2)nnc1SCC(=O)Nc1ccc(F)cc1F | -24.5% | 3.26 µM [falling, full curve, poor fit] | –
CCOc1ccccc1C(=O)Nc1cccc(-c2nnc(-c3ccccc3)o2)c1 | 39.7% | – | 0.092 µM [rising, full curve, poor fit]
COc1cccc(-c2nnc(-c3ccccc3[N+](=O)[O-])o2)c1 | 29.3% | 0.00651 µM [rising, full curve, poor fit] | –
CC(C)c1ccc(O)c(NC(=S)NC(=O)c2ccc3c(c2)OCO3)c1 | -60.6% | 16.4 µM [falling, single point] | –
CC(=O)NC(C)c1cc(F)c2cccnc2c1O (stereo not drawn) | 22.3% | – | 1.16 µM [rising, partial curve]
CC(C)CC(c1nnnn1C(C)C)N1CCN(c2cccc(Cl)c2)CC1 (stereo not drawn) | -2.37% | – | 18.4 µM [falling, single point]
CN(C)N1C(N)=C(C#N)C(c2cccc3ccccc23)C2=C1CC(c1ccccc1)CC2=O (stereo not drawn) | -7.18% | – | 29.1 µM [falling, single point]
Cn1c(CN2CCCCC2)nc2cc([N+](=O)[O-])ccc21 | 22.5% | – | –
COc1ccc(C)cc1NC(=O)CSc1nc(=O)n(CCCN2CCOCC2)c2c1CCCC2 | -9.66% | – | 2.06 µM [rising, partial curve, poor fit]
O=C(NNC(=S)NC(=O)c1ccco1)c1ccc(F)cc1 | 1.6% | – | –
O=C(NCC(c1ccco1)N1CCCCC1)c1cc2c(s1)CCCC2 (stereo not drawn) | 16.3% | 2.06 µM [falling, single point] | –
Cc1cccc(OCc2nnc(SCC(=O)N3CCCC3)n2C)c1 | 58.7% | 16.4 µM [rising, partial curve] | 6.51 µM [rising, single point]
O=C(CN1CCN(c2ccccn2)CC1)NC1CCCC1 | 0.194% | – | 14.6 µM [rising, single point]

SMILES | cell number change | AC50 [1] | AC50 [2]
Cn1cccc1Cc1nnc(SCC(=O)NCc2ccc3c(c2)OCO3)n1CCc1ccccc1 | – | – | 0.58 µM [rising, single point]
COC(c1ccccc1)c1nnc(CCC(=O)N(C)CCc2ccccc2)o1 (stereo not drawn) | -28% | – | 20.6 µM [falling, partial curve, poor fit]
CCCN(CCC)C(=O)CSc1nc2ccccc2c(=O)n1C1CCCC1 | – | – | 6.51 µM [rising, single point]
CC(C)NC(=O)CN1C(=O)NC(CCc2ccccc2)C1=O (stereo not drawn) | 16.2% | – | –
COc1ccc(C(=O)N2CCOC2CNC(=O)C(=O)NCCc2ccc(OC)c(OC)c2)cc1 (stereo not drawn) | 5.82% | – | 0.651 µM [falling, full curve]
Cc1ccc(NC(=O)CSc2ccccn2)cc1S(=O)(=O)N1CCOCC1 | 36.4% | 6.51 µM [rising, single point] | –
COc1ccc(/C=C2/SC(=O)N(CCC(=O)Nc3ccccc3C(=O)O)C2=S)cc1 | 19.4% | – | 2.06 µM [rising, full curve, poor fit]
Cc1nn(C)cc1C(N)=O | -21.4% | – | 4.11 µM [falling, full curve]
CCC(=O)n1nc(-c2cccnc2)nc1NCc1ccccc1 | 5.98% | 3.66 µM [falling, single point] | 3.66 µM [falling, single point]
Cc1cccc(OCC(=O)N2CCC(N3CCCCCC3)CC2)c1 | -34.8% | 2.59 µM [falling, full curve] | –
CCCCc1nc2sc3c(c2c(=O)[nH]1)CCC3 | -13% | – | 0.326 µM [falling, partial curve]
Cc1ccc(C(=O)N2CC=C(c3ccccc3)CC2)o1 | 2.78% | – | 1.46 µM [rising, partial curve]
O=[N+]([O-])C(C1CCS(=O)(=O)C1)C1CCS(=O)(=O)C1 (stereo not drawn) | -27.1% | – | 3.66 µM [falling, partial curve, poor fit]
CSc1cccc(CN2CCCC(C(=O)Nc3cccc(-n4cccn4)c3)C2)c1 (stereo not drawn) | 11.9% | – | –
CC(C)(C)C(=O)CN1C2=NCCCN2c2ccccc21 | 20.2% | – | 0.13 µM [rising, full curve, poor fit]
O=C(c1ccc(CSc2ccc(Cl)cc2)cc1)N1CCCC1 | 2.6% | – | –
O=C(Cn1cnc2ccccc21)N1CCc2ccccc21 | -33.3% | 32.6 µM [falling, single point] | 29.1 µM [falling, partial curve, poor fit]
COc1ccc(C)cc1NC(=O)CN(c1ccccc1F)S(C)(=O)=O | -10.3% | – | 1.03 µM [rising, full curve]
O=C1CCC(=O)N1CNc1ccccn1 | -143% | 23.1 µM [falling, partial curve] | 29.1 µM [falling, partial curve]
CCCCn1c(N)c(N(CCC(C)C)C(=O)C2CCCN(C(=O)c3ccc(Cl)cc3)C2)c(=O)[nH]c1=O (stereo not drawn) | 23% | – | –
